Some targets named below: GFP-LC3A (human) (UniProt Q9H492); GFP-LC3C (human) (UniProt Q9BXW4); GFP-GABARAPL2 (human) (UniProt P60520).
What all share (experiment): co-IP; GFP-TRAP of lysates of HEK293A cells expressing GFP-ATG8 constructs, blot for endogenous PCM1; TNTE buffer; cells in full medium, EBSS or EBSS + bafilomycin A1 for 2 hr

By UniProt entry, the sequences of proteins in these tests, tags left out. Where a name states a change or a piece, a line headed by the entry shows the natural chain unless it says otherwise. Chains listed by the source or under a name are the forms on record and can include a tag or linker. Residues count along the entry.
UniProt Q9BXW4, residues 1-126: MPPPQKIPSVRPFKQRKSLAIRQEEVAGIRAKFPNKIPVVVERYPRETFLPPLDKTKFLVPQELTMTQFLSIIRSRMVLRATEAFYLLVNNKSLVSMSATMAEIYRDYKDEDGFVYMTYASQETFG
UniProt P60520: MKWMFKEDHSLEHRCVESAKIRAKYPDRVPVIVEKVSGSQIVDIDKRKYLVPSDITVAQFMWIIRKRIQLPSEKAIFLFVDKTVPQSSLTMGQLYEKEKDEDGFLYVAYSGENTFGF
PCM1 (endogenous) (Q15154-5, form named): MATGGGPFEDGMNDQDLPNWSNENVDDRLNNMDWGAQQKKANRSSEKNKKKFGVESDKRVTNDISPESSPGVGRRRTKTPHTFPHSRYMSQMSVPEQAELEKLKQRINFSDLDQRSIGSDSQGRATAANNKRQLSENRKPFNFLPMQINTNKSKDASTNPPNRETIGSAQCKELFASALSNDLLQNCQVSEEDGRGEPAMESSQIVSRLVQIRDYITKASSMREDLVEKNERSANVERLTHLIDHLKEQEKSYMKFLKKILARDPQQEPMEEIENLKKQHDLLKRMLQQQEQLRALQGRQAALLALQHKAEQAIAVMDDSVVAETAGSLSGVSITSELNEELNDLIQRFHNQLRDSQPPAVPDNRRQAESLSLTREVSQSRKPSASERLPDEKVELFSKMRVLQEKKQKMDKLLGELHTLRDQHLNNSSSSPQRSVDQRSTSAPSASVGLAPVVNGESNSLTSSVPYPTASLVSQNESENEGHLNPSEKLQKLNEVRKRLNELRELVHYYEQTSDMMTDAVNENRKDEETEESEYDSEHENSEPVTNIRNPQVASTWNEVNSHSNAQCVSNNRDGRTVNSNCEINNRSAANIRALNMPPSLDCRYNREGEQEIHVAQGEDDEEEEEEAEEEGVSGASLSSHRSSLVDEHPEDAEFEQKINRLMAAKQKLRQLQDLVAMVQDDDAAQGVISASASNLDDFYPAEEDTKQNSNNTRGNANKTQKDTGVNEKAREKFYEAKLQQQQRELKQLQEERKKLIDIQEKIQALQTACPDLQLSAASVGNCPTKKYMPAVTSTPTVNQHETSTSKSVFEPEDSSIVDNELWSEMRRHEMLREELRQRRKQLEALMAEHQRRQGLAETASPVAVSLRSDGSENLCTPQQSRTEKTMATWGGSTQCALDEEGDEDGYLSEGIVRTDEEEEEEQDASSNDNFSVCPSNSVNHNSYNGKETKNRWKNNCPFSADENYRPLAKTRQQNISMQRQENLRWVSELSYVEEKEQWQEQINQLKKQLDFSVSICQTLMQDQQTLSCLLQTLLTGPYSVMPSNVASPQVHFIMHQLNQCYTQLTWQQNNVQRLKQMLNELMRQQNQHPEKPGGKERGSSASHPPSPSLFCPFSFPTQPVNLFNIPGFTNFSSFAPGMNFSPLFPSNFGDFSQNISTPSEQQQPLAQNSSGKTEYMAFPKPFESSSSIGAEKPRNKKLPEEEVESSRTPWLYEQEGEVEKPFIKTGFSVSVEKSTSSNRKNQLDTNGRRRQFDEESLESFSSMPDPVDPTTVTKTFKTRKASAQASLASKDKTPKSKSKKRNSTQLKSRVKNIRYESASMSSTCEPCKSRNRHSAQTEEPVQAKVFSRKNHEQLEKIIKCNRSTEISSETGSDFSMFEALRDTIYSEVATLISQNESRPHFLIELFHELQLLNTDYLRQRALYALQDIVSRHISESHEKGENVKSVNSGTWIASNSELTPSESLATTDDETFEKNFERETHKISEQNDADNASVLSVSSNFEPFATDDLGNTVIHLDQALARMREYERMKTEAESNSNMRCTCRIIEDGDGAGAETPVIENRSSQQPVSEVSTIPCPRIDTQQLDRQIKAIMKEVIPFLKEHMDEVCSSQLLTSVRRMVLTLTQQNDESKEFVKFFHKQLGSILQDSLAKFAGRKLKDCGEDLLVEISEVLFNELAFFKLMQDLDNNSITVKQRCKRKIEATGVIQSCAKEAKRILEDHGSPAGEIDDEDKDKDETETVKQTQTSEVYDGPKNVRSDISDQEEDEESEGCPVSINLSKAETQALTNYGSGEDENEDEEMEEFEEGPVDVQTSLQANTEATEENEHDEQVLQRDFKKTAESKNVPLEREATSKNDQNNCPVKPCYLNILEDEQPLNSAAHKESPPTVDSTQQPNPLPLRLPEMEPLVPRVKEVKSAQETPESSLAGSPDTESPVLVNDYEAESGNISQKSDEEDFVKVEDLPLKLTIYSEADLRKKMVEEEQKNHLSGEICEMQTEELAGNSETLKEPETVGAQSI

These are yes or no findings as the source states them, for the method shown. In cells and extracts the contact can be indirect. Some binding calls cover weakened binding; strength is not graded here.

Take “PCM1 (endogenous) (from UniProt Q15154-5 1-2016)”: the binding entry is on record as “binds weakly” in the assay with GFP-LC3A (human), “binds” with GFP-LC3C (human) and “binds” with GFP-GABARAPL2 (human).

Source of the values: article PMC5526835.
